Consider 17 molecules from PubChem BioAssay AID248 (DTP/NCI, 2004).

The experiment deals with L1210 leukemia ip in BDF1 mice, survival T/C. Description: NCI In Vivo Anticancer Drug Screen. Data for tumor model L1210 Leukemia (intraperitoneal) in B6D2F1 (BDF1) mice. Particulars: T/C endpoint: mean survival time, higher T/C = longer survival.
Where [1] appears, read: dose: 100.0 mg/kg/injection, schedule: Q01DX009 (ip), vehicle: Klucel (hydroxypropylcellulose) (HPC).
Setting [2] is: dose: 200.0 mg/kg/injection, schedule: Q01DX009 (ip), vehicle: Klucel (hydroxypropylcellulose) (HPC).
Setting [3] is: dose: 400.0 mg/kg/injection, schedule: Q04DX002 (ip), vehicle: saline with Tween-80.

Molecules are shown by their SMILES. The list is a part of this screen's results and no random one: it is rich in T/C values a quarter to a half above the control, in often repeated tests (any T/C) and in doses without a T/C. Other doses and runs of a compound stand elsewhere. T/C: endpoint of the treated group in % of that of the vehicle group. Some entries give survivors of the animals treated and no T/C: the source holds a T/C of zero for them, seemingly a mark for toxic or unscored doses. Some doses without a T/C left all or most animals alive at the check, yet need not have been tolerated: the source hardly ever lists a survival T/C far under the control, and the zero likely stands for such cases as well. Counts of survivors are from the toxicity check (mostly the fifth day) where no day follows; animals may have died later. Schedule codes are those of the source, read here as Q, the interval in days (D) or hours (H), X, the number of doses. Some schedule codes hold Z or #, which are not explained here. Some molecules as drawn cover several salts, stereoisomers or complexes of the source; a dose is that of the sample tested. For survival time, the PubChem record calls one and a half times the control and up active, and a quarter to a half above the control has no call in these data; cut-offs in other NCI protocols can differ.

Take `O=C(Nc1ccc(F)cc1)Oc1ccc2ccccc2c1`: where the note is “dose: 400.0 mg/kg/injection, schedule: Q04DX002 (ip), vehicle: carboxymethylcellulose (CMC)”, the survivor count is given as 3 of 3.

Take `COC(=O)CC(=O)C(Cl)C(=O)OC` (stereo not drawn): for the setting “dose: 200.0 mg/kg/injection, schedule: Q01DX009 (ip), vehicle: saline”, the survivor count is 0 of 3.

Regarding `Cc1cc(Cl)c2cc(Cl)cc(Cl)c2n1`, under “dose: 400.0 mg/kg/injection, schedule: Q01DX009 (ip), vehicle: saline”, the survivor count is recorded as 5 of 6.

Take `COC(=O)c1ccc(=O)c2nc3/c(=C/O)c(O)cc(=O)c3[nH]c12`: the survivor count was 3 of 6 (dose: 0.19 mg/kg/injection, schedule: Q01DX001 (ip), vehicle: saline); 0 of 6 (dose: 0.39 mg/kg/injection, schedule: Q01DX001 (ip), vehicle: saline); 0 of 6 (dose: 0.78 mg/kg/injection, schedule: Q01DX001 (ip), vehicle: saline); 0 of 6 (dose: 1.56 mg/kg/injection, schedule: Q01DX001 (ip), vehicle: saline); 5 of 6 (dose: 2.5 mg/kg/injection, schedule: Q01DX009 (ip), vehicle: saline with Tween-80); 0 of 6 (dose: 3.12 mg/kg/injection, schedule: Q01DX001 (ip), vehicle: saline). Besides, the survivor count reads like this: (dose: 5.0 mg/kg/injection, schedule: Q01DX009 (ip), vehicle: saline with Tween-80) 4 of 6; (dose: 6.25 mg/kg/injection, schedule: Q01DX001 (ip), vehicle: saline) 0 of 6; (dose: 10.0 mg/kg/injection, schedule: Q01DX009 (ip), vehicle: saline with Tween-80) 0 of 6; (dose: 12.5 mg/kg/injection, schedule: Q01DX001 (ip), vehicle: saline) 1 of 6; (dose: 25.0 mg/kg/injection, schedule: Q01DX001 (ip), vehicle: saline) 0 of 6; (dose: 50.0 mg/kg/injection, schedule: Q01DX001 (ip), vehicle: saline) 0 of 6. For the same molecule, the survivor count is listed as 0 of 6 (dose: 100.0 mg/kg/injection, schedule: Q01DX001 (ip), vehicle: saline); 0 of 6 (dose: 100.0 mg/kg/injection, schedule: Q04DX003 (ip), vehicle: saline with Tween-80); 0 of 6 (dose: 200.0 mg/kg/injection, schedule: Q01DX001 (ip), vehicle: saline); 0 of 6 (dose: 200.0 mg/kg/injection, schedule: Q04DX003 (ip), vehicle: saline with Tween-80); 0 of 6 (dose: 400.0 mg/kg/injection, schedule: Q01DX001 (ip), vehicle: saline); 0 of 6 (dose: 400.0 mg/kg/injection, schedule: Q04DX003 (ip), vehicle: saline with Tween-80). For the same molecule, where the note is “dose: 95.0 micrograms/kg/injection, schedule: Q01DX009 (ip), vehicle: saline”, the survivor count is reported as 6 of 6.

Take `[Cl][Sb]([Cl])([c]1ccccc1)([c]1ccccc1)[c]1ccccc1`: the survivor count is listed as 5 of 6 under setting [1]; 1 of 3 (dose: 100.0 mg/kg/injection, schedule: Q04DX002 (ip), vehicle: saline with Tween-80); 0 of 6 under setting [2]; 1 of 3 (dose: 200.0 mg/kg/injection, schedule: Q04DX002 (ip), vehicle: saline with Tween-80); 1 of 3 under setting [3].

Regarding `CC1CN=C(c2ccc(NC(=O)NCCCCCCCCCCCCNC(=O)Nc3ccc(C4=NCC(C)N4)cc3)cc2)N1` (stereo not drawn), the survivor count is, setting by setting: (dose: 250.0 mg/kg/injection, schedule: Q01DX Z (ip), vehicle: carboxymethylcellulose (CMC)) 5 of 6; (dose: 500.0 mg/kg/injection, schedule: Q01DX Z (ip), vehicle: carboxymethylcellulose (CMC)) 0 of 6.

With `NCCc1cc(O)c(O)c(S(=O)(=O)c2ccc(N)cc2)c1`, the survivor count (dose: 300.0 mg/kg/injection, schedule: Q01DX009 (ip), vehicle: saline) is 3 of 6.

`CCCCCCC(O)C(=O)O` (stereo not drawn): the survivor count under setting [3] is recorded as 0 of 3.

Consider `C[n+]1ccccc1/C=C/c1ccc(O)c2ccccc12`, for which the survivor count (dose: 150.0 mg/kg/injection, schedule: Q01DX001 (ip), vehicle: saline) is reported as 3 of 6 and the survivor count (dose: 300.0 mg/kg/injection, schedule: Q01DX001 (ip), vehicle: saline) is on record as 0 of 6.

Consider `COC(=O)CC(C(=O)OC)N1CC1` (stereo not drawn), for which the survivor count (dose: 150.0 mg/kg/injection, schedule: Q01DX001 (ip), vehicle: carboxymethylcellulose (CMC)) is given as 3 of 6 and the survivor count (dose: 300.0 mg/kg/injection, schedule: Q01DX001 (ip), vehicle: carboxymethylcellulose (CMC)) is recorded as 1 of 6.

For the molecule `CC(=S)NC(=O)Nc1cccc2ccccc12`, the survivor count (dose: 400.0 mg/kg/injection, schedule: Q01DX001 (ip), vehicle: Klucel (hydroxypropylcellulose) (HPC)) is 3 of 3.

For `[Cl][Fe]([Cl])[Cl]`, the survivor count was 6 of 6 (dose: 50.0 mg/kg/injection, schedule: Q01DX009 (ip), vehicle: saline with Tween-80); 5 of 6 (dose: 100.0 mg/kg/injection, schedule: Q01DX009 (ip), vehicle: saline with Tween-80); 3 of 6 (dose: 200.0 mg/kg/injection, schedule: Q01DX009 (ip), vehicle: saline with Tween-80); 0 of 6 (dose: 400.0 mg/kg/injection, schedule: Q01DX009 (ip), vehicle: saline with Tween-80).

Take `OC(c1ccccc1)(c1ccccc1)C1c2ccccc2-c2[nH]c3ccccc3c21` (stereo not drawn): the survivor count runs as follows: (dose: 100.0 mg/kg/injection, schedule: Q01DX001 (ip), vehicle: saline with Tween-80) 3 of 3; (dose: 400.0 mg/kg/injection, schedule: Q01DX001 (ip), vehicle: saline with Tween-80) 3 of 3.

For `c1ccc([As+](c2ccccc2)(c2ccccc2)c2ccccc2)cc1`, the T/C by setting is: (dose: 1.25 mg/kg/injection, schedule: Q01DX Z (ip), vehicle: methylcellulose (MC)) 131 % of control; (dose: 2.5 mg/kg/injection, schedule: Q01DX Z (ip), vehicle: carboxymethylcellulose (CMC)) 125 % of control; (dose: 3.75 mg/kg/injection, schedule: Q01DX Z (ip), vehicle: carboxymethylcellulose (CMC)) 127 % of control. Further, the survivor count by setting is: (dose: 5.0 mg/kg/injection, schedule: Q01DX Z (ip), vehicle: methylcellulose (MC)) 3 of 6; (dose: 10.0 mg/kg/injection, schedule: Q01DX001 (ip), vehicle: carboxymethylcellulose (CMC)) 3 of 6; (dose: 10.0 mg/kg/injection, schedule: Q01DX Z (ip), vehicle: methylcellulose (MC)) 3 of 6; (dose: 20.0 mg/kg/injection, schedule: Q01DX001 (ip), vehicle: carboxymethylcellulose (CMC)) 5 of 6; (dose: 20.0 mg/kg/injection, schedule: Q01DX001 (ip), vehicle: saline) 2 of 6; (dose: 40.0 mg/kg/injection, schedule: Q01DX001 (ip), vehicle: carboxymethylcellulose (CMC)) 2 of 6. Also, the survivor count is reported as 3 of 6 (dose: 40.0 mg/kg/injection, schedule: Q01DX001 (ip), vehicle: saline) and 0 of 6 (dose: 80.0 mg/kg/injection, schedule: Q01DX001 (ip), vehicle: saline).

Regarding `Cc1ccc(C(O)C(=O)O)cc1` (stereo not drawn), the survivor count (dose: 300.0 mg/kg/injection, schedule: Q01DX001 (ip), vehicle: acetone) is 1 of 6.

With `Cc1ccc(C)c(N2CCN(c3ccncc3N)CC2)c1`, the survivor count (dose: 300.0 mg/kg/injection, schedule: Q01DX009 (ip), vehicle: saline with Tween-80) is recorded as 0 of 6.

Consider `NC(=O)c1c(Cl)nsc1Cl`, for which the survivor count under setting [1] is on record as 3 of 6; the survivor count under setting [2] was 0 of 6; the survivor count (dose: 400.0 mg/kg/injection, schedule: Q01DX009 (ip), vehicle: Klucel (hydroxypropylcellulose) (HPC)) was 0 of 6.
